# Hit rate of the full screen: of about 340,000 compounds, about 170 (0.05%) were called active. Inconclusive results, whose numbers are uncertain, are shown with a selection of clear calls. The call rests on the fitted dose curve; in most records, active means well fitted inhibition curve with a large enough effect in the signal ratio, with a control signal flat (not every such curve was filed as active); inconclusive means small, poorly fitted or top-dose-only effect, or effect the other way, or a change in a side signal; inactive means flat fitted curve, though single readings scatter; the % refers to the signal ratio. Potencies of inconclusive entries are doubtful fits and often do not repeat.
# Assay: qHTS Assay to Find Inhibitors of Chronic Active B-Cell Receptor Signaling;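 on activity change, negative = inhibition: plate controls were basal doxycycline-induced cells for no effect and cells given 10 µM MG132 for full effect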
# Conditions: ABC-DLBCL IkBa-CBG/CBR reporter, luminescence ratio (green luciferase fused to IkBa over red control in TMD8 lymphoma cells), 4 h; activity change, negative = inhibition: at 46.1 µM (top of the series) unless noted
# Procedure, shortened: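 Concentration-response series (up to 46 uM) were applied to TMD8 dual-reporter cells for 4 h at 37C with doxycycline. Green/red ratio, after filter-overlap correction, defined %Activity; red signal alone was normalised to basal cells and zero luminescence.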
# Potency means the concentration at half of the fitted maximal effect.
SMILES,"activity change, negative = inhibition",Potency
Clc1cccc(CSc2nccn2-c2ccccc2)c1,inconclusive: 19.7%,
O=C1CC(NS(=O)(=O)c2cccnc2)CN1c1ccc(F)cc1 (stereo not drawn),inconclusive: 13.9%,
COC(=O)Nc1c(-c2ccccc2)nc2ccccn12,inconclusive: 0.427%,
COc1ccc(-c2nnc(-c3cc(OC)c(OC)c(OC)c3)o2)cc1OC,inconclusive: 17%,
O=C(CCN1CCN(Cc2ccccc2)CC1)NNC(=O)Nc1cccc(C(F)(F)F)c1,inconclusive: 0.993%,
Cc1cc(C)c(S(C)(=O)=O)c(Oc2cccc(C(F)(F)F)c2)n1,inconclusive: 12.2%,
COc1cccc(NC(=O)CNC(=O)N2CC(=O)Nc3ccccc32)c1,,"inconclusive: 11.2 µM [falling, partial curve, poor fit]"
COc1ccc2c(c1)[C@H]1[C@H](CO2)[C@H](c2ccccc2)[C@]2(C)C(=O)Nc3ccc(C)cc3C(=O)N12,inconclusive: 2.97%,
Cc1cc2c(c(=O)n1CCN(C)C)C(c1ccc(Cl)cc1)C(C#N)=C(N)O2 (stereo not drawn),inconclusive: -16.2%,
O=C(NC1CC2CCCC(C1)N2Cc1ccc(F)cc1)c1ccc(F)cc1 (stereo not drawn),inactive: 8.85%,
COc1ccc(OC)c(NS(=O)(=O)c2ccc3c(c2)n(C)c(=O)n3C)c1,inconclusive: 11%,
Cc1csc(NC(=O)COc2ccc3c(C)cc(=O)oc3c2)n1,,"inconclusive: 4.11 µM [falling, single point]"
CCOC(=O)C1=C(C)NC(=O)NC1c1cccnc1 (stereo not drawn),inconclusive: 3.33%,
Cc1cc(NC(=O)COC(=O)CCS(=O)(=O)c2cc(Cl)ccc2Cl)no1,inactive: 5.73%,
COc1ccc(OCCOc2ccc(N(C)S(=O)(=O)c3ccccc3)cc2)cc1,inactive: 2.46%,
Cc1ccccc1NC(=O)c1sc2nc3c(c(-c4ccco4)c2c1N)CCC3,,"inconclusive: 3.98 µM [falling, single point]"
CCC/C=N/NC(=O)c1cc(-c2ccccc2)nc2ccccc12,,"inconclusive: 16.4 µM [falling, single point]"
COc1ccccc1CNC(=O)CSc1n[nH]c(N)n1,inconclusive: 0.134%,
CCc1nc2ccc(C(=O)N3CCN(c4cccc(OC)c4)CC3)cc2nc1CC,inactive,
c1ccc(Nc2nc(N3CCOCC3)nc(N3CCOCC3)n2)cc1,,"inconclusive: 23.1 µM [falling, partial curve]"
COc1ccc(NC(=O)CN2C(=O)NC3(CCCc4ccccc43)C2=O)c(OC)c1 (stereo not drawn),inactive: 1.85%,

# Structures shown so far that have fluorine, in the order listed:
SMILES,"activity change, negative = inhibition",Potency
O=C1CC(NS(=O)(=O)c2cccnc2)CN1c1ccc(F)cc1 (stereo not drawn),inconclusive: 13.9%,
O=C(CCN1CCN(Cc2ccccc2)CC1)NNC(=O)Nc1cccc(C(F)(F)F)c1,inconclusive: 0.993%,
Cc1cc(C)c(S(C)(=O)=O)c(Oc2cccc(C(F)(F)F)c2)n1,inconclusive: 12.2%,
O=C(NC1CC2CCCC(C1)N2Cc1ccc(F)cc1)c1ccc(F)cc1 (stereo not drawn),inactive: 8.85%,

# (more compounds)

SMILES,"activity change, negative = inhibition",Potency
O=C(Nc1ccc(Cl)cc1)c1cc(Br)ccc1OCC(=O)N1CCOCC1,inconclusive: -11.6%,
Cc1ccccc1-n1c(SCc2csc(Nc3ccccc3)n2)nnc1-c1cccnc1,inconclusive: 10.2%,
O=C(CSc1ncn[nH]1)N1N=C2/C(=C/c3ccccc3)CCCC2C1c1ccccc1 (stereo not drawn),inconclusive: -27.4%,
Cc1cc(=O)oc2cc(OCC(=O)NC3(C#N)CCCCC3)c(Cl)cc12,inconclusive: 12.8%,
CCOC(=O)[C@@H](C)NS(=O)(=O)N(Cc1ccccc1)[C@H](C(=O)OC)C(C)C,inactive: 11.6%,
COc1cc2c(cc1OC)C(COc1cc(C)cc(C)c1)N(C(=O)c1ccc(S(=O)(=O)N3CCCC3)cc1)CC2 (stereo not drawn),inactive: -4.79%,
O=C(N/N=C1\CCSC1)c1cc(Cl)ccc1O,inconclusive: 185%,
Cc1nc2sc(C(c3cccc(F)c3)N3CCC(O)CC3)c(O)n2n1 (stereo not drawn),inconclusive: 12.3%,
CCSc1ccccc1C(=O)N1CCC2(CC1)CC(=O)c1ccccc1O2,inconclusive: 6.59%,
COc1ccc(CC(=O)OCC(=O)c2ccc(OC)c(OC)c2)cc1,inconclusive: -0.736%,
COc1cc(CNc2nnnn2C)cc(OC)c1OC,inactive: -0.38%,
O=C(CCCCCn1c(=O)[nH]c2ccccc2c1=O)N1CCN(c2ccc(Cl)cc2)CC1,inactive: -12.6%,
O=C(Nc1ccccc1)c1ccn[nH]1,inconclusive: 350%,
CCOc1ccccc1N(CC(=O)Nc1ccc(OC)cc1)S(=O)(=O)c1ccccc1,inconclusive: -0.782%,
OCCNC(=S)Nc1ccc(Oc2ccccc2)cc1,inactive: 0.639%,
NNC(=O)CNC(c1ccccc1)c1cc(Br)ccc1NC(=O)c1ccc(Br)cc1 (stereo not drawn),inconclusive: 8.82%,
CCCN(CCC)C(=O)CC(c1ccccc1)c1ccco1 (stereo not drawn),inconclusive: -53.5%,
O=S(=O)(NCC(c1ccco1)N1CCOCC1)c1ccc(Cl)cc1 (stereo not drawn),inactive,
O=C(N/N=C/c1ccc(Br)s1)c1cccnc1,,"inconclusive: 35.5 µM [cytotoxic, single point]"
Cc1ccc(NC(=O)NC(=O)CSc2nnc(-c3ccc(OC(F)F)cc3)n2N)c(C)c1,inconclusive: 6.66%,
CSc1ccccc1NC(=O)c1cc(C)on1,,"inconclusive: 20.6 µM [falling, partial curve, poor fit]"

# Fetched by structure from the entries so far, 2 records:
SMILES,"activity change, negative = inhibition",Potency
Cc1nc2sc(C(c3cccc(F)c3)N3CCC(O)CC3)c(O)n2n1 (stereo not drawn),inconclusive: 12.3%,
O=C(CCCCCn1c(=O)[nH]c2ccccc2c1=O)N1CCN(c2ccc(Cl)cc2)CC1,inactive: -12.6%,

# The listing continues:

SMILES,"activity change, negative = inhibition",Potency
CC(OC(=O)C1CSC2(c3ccc(F)cc3)CCC(=O)N12)C(=O)NC(N)=O (stereo not drawn),inconclusive: -8%,
CCCCOC(=O)CSc1nc2c(cc1C#N)C(=O)CC(C)(C)C2,inactive: -5.7%,
COC(=O)C1=C(C)N(Cc2ccccc2)C(=NCC2CC2)N[C@H]1c1ccc(Br)cc1,inconclusive: 23.7%,
O=C(CNC(=O)c1ccccc1)NCC(=O)OCc1ccc(Cl)cc1,,"inconclusive: 35.5 µM [rising, partial curve, poor fit]"
Cc1ccccc1-c1noc(-c2cccs2)n1,inconclusive: 3.61%,
O=C(/C=C/Nc1ccc(F)c(Cl)c1)c1ccco1,,"inconclusive: 18.4 µM [falling, single point]"
COc1cccc(/C=N/NC(=O)CNC(=O)c2ccncc2)c1O,inactive: -19.7%,
CCCCn1c(SCC(=O)NCc2ccco2)nc2cc(S(N)(=O)=O)ccc21,inconclusive: 6.27%,
O=C(CNC1CCCCC1)NN=C(c1ccccc1)c1ccccc1,inconclusive: -9.2%,
CCOC(=O)c1c(CSc2ccc(CC)cc2)oc2ccc(O)c(CN(C)C)c12,,"inconclusive: 35.5 µM [falling, single point]"
O=S(=O)(/N=C(/Nc1cccc2ccccc12)c1ccccc1)c1cccs1,,"inconclusive: 18.4 µM [falling, partial curve, poor fit]"
Cc1cc(C(=O)N/N=C2\CC(=O)c3ccccc32)c(C)n1-c1ccccc1,inconclusive: 3.06%,
O=C1C(=O)N(CCN2CCOCC2)C(c2ccc(Cl)c(Cl)c2)/C1=C(/O)c1ccc2c(c1)OCO2 (stereo not drawn),inconclusive: -1.7%,
COc1c(Cl)cnn(-c2ccccc2)c1=O,,"inconclusive: 9.2 µM [rising, partial curve, poor fit]"
COc1ccc(NC(=O)N2CCCc3ccccc32)cc1,inactive: -0.0328%,
S=C(NC1CCCCCC1)NC1CCCC1,inconclusive: 4.57%,
COc1cc(/C=N/S(=O)(=O)CCc2ccccc2)cc(OC)c1O,inactive: 0.238%,
C(=N\N1CCN(Cc2cccc3ccccc23)CC1)/c1cccnc1,inactive: 11%,
NS(=O)(=O)c1ccc(CCNC(=O)c2ccc[nH]c2=S)cc1,inconclusive: -11.7%,
Cc1cccc(C(=O)Nc2nc3ccc(S(C)(=O)=O)cc3s2)c1,,"inconclusive: 14.1 µM [falling, partial curve, poor fit]"
Cn1c(SCc2cccc(F)c2)nnc1-c1ccncc1,inconclusive: 4.12%,

SMILES,"activity change, negative = inhibition",Potency
O=C(COc1ccccc1)Nc1ccc(OC(F)(F)C(F)F)c(NC(=O)COc2ccccc2)c1,inconclusive: 26.3%,
Cc1nc2c3cc(F)ccc3n(Cc3ccccc3F)c2s1,inconclusive: -18.3%,
CCN1C(=NCCc2cccs2)N[C@@H](CCc2ccccc2)[C@H](C(=O)NCCc2cccs2)[C@H]1C,inconclusive: -3.14%,
O=C(COC(=O)c1c(Cl)cccc1Cl)NCc1cccs1,inconclusive: -5.48%,
O=C(Nc1cccc2ccccc12)c1ccc(F)cc1,,"inconclusive: 35.5 µM [falling, single point]"
Cc1ccsc1/C=N/N1CCOCC1,inconclusive: 6.47%,
COc1ccc(-c2cc(C(=O)OCC(=O)N3CCCCC3)c3ccccc3n2)cc1OC,inactive: -15.3%,
COc1ccc(/C=C2\Sc3ccc(C(=O)N4CCc5ccccc5C4)cc3N(C)C2=O)cc1,inconclusive: 7.98%,
COc1cccc(C(NC(=O)c2ccccc2F)NC(=O)c2ccccc2F)c1,inconclusive: 9.1%,
CCN(CC)S(=O)(=O)c1ccc(NC(=O)COC(=O)c2ccc(-n3nc(C)cc3C)cc2)cc1,,"inconclusive: 0.326 µM [falling, full curve, poor fit]"
CC(C)N(C(=O)c1sc2cc([N+](=O)[O-])ccc2c1Cl)C(C)C,inconclusive: 0%,
O=C(O)C1C2C=CC(C2)C1C(=O)Nc1cccc(C(=O)N2CCCCC2)c1 (stereo not drawn),,"inconclusive: 29.1 µM [falling, single point]"
Cc1ccc(S(=O)(=O)N(CC(=O)NCCSc2ccccn2)c2ccccc2F)cc1,inactive: 10.6%,
C/C(=N\Nc1ccc(F)cc1F)c1cccs1,inconclusive: 4.7%,
Cn1c(=O)c2c(ncn2CCC(=O)N/N=C/c2ccccc2)n(C)c1=O,inconclusive: 10.3%,
O=C(c1ccc(Cl)cc1)C(CN1CCCC1)c1ccccc1 (stereo not drawn),inconclusive: 7.54%,
COc1cc(CNCCNC(=O)c2nonc2N)ccc1OCc1ccc(Cl)cc1,,"inconclusive: 35.5 µM [falling, single point]"
COc1cc(S(=O)(=O)N2CCN=C2c2ccccc2)ccc1Cl,inconclusive: -6.91%,
O=C(NCc1ccc(Cl)cc1)C1CCN(c2nnc(N3CCCC3=O)s2)CC1,inconclusive: 25.8%,
CCC(C)NC(=O)CSc1nnc(-c2cc(-c3ccc(C)cc3)nc3ccccc23)n1N (stereo not drawn),,"inconclusive: 29.1 µM [falling, single point]"
